Experimental data from the supplement of paper PMC10849652.
The list shows a part of the results.

Sequences of proteins named here, by UniProt entry; tags and fusion partners are left off. A change or cut given only in a name is not applied to a line headed by its entry.
UniProt Q9NZ32, whole entry, looked up: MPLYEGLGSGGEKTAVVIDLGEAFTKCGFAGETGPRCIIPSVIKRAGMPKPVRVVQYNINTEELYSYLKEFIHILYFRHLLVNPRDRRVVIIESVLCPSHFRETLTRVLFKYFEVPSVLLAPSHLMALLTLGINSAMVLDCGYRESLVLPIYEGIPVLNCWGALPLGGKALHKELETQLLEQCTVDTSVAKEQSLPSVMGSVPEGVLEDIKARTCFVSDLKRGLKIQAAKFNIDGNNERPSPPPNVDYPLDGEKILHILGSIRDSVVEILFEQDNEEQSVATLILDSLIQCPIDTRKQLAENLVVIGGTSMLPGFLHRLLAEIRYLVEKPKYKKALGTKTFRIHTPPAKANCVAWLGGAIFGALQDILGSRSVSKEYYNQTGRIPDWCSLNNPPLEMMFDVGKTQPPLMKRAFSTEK
UniProt O15439: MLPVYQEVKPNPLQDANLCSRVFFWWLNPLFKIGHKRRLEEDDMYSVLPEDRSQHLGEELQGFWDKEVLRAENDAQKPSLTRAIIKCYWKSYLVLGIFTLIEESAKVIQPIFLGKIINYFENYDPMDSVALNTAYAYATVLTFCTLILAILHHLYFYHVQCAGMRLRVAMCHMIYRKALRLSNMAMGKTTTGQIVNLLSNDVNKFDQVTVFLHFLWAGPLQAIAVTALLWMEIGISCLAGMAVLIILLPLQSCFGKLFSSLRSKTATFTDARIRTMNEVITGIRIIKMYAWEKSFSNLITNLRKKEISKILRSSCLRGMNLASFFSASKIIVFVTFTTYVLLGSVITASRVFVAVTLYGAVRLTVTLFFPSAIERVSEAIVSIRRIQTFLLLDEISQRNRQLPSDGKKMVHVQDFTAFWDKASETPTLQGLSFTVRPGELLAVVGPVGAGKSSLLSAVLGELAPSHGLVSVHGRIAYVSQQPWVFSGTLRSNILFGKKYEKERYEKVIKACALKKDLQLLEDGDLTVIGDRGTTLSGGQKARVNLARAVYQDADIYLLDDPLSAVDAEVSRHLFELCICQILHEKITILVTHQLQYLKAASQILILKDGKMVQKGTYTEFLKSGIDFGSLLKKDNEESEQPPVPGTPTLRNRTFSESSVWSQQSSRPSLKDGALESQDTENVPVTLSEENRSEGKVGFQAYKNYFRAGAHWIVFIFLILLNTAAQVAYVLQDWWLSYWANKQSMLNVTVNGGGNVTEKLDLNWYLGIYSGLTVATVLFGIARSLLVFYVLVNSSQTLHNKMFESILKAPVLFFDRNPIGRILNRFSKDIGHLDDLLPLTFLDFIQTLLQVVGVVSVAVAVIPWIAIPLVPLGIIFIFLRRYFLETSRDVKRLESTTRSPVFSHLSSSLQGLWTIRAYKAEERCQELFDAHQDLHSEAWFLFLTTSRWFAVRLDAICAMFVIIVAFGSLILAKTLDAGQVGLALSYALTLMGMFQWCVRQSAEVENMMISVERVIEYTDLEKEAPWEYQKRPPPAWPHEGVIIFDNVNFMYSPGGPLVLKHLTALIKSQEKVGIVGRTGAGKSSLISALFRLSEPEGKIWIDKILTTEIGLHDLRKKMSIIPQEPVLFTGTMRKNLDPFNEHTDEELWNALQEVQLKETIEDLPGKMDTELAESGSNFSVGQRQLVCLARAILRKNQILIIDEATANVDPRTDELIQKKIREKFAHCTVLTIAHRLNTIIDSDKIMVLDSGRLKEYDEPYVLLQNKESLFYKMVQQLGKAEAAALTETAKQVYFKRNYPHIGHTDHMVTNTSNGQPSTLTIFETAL
UniProt P61163, whole entry, looked up: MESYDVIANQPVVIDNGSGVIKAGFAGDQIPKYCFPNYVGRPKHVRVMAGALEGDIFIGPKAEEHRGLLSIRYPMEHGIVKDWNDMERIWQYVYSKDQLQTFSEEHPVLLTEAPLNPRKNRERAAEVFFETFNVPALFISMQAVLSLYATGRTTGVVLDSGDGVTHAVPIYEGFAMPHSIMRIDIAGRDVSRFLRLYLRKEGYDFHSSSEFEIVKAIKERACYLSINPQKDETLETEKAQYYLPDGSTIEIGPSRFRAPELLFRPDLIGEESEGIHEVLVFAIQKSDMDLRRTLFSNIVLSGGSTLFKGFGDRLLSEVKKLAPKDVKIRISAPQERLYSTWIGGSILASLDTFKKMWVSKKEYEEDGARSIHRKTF
UniProt Q9Y305: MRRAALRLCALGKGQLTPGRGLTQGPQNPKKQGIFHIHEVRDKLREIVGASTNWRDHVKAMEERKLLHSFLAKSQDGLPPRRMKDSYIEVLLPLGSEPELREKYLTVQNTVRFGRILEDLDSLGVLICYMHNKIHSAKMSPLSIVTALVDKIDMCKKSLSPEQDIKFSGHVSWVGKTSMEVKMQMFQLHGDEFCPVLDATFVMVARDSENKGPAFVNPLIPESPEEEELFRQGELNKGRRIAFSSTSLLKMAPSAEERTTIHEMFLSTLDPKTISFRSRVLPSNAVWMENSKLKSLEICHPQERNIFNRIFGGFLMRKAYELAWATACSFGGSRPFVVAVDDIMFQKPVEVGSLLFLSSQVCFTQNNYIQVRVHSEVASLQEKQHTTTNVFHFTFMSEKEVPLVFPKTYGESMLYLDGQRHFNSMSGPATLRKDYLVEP
UniProt P55265: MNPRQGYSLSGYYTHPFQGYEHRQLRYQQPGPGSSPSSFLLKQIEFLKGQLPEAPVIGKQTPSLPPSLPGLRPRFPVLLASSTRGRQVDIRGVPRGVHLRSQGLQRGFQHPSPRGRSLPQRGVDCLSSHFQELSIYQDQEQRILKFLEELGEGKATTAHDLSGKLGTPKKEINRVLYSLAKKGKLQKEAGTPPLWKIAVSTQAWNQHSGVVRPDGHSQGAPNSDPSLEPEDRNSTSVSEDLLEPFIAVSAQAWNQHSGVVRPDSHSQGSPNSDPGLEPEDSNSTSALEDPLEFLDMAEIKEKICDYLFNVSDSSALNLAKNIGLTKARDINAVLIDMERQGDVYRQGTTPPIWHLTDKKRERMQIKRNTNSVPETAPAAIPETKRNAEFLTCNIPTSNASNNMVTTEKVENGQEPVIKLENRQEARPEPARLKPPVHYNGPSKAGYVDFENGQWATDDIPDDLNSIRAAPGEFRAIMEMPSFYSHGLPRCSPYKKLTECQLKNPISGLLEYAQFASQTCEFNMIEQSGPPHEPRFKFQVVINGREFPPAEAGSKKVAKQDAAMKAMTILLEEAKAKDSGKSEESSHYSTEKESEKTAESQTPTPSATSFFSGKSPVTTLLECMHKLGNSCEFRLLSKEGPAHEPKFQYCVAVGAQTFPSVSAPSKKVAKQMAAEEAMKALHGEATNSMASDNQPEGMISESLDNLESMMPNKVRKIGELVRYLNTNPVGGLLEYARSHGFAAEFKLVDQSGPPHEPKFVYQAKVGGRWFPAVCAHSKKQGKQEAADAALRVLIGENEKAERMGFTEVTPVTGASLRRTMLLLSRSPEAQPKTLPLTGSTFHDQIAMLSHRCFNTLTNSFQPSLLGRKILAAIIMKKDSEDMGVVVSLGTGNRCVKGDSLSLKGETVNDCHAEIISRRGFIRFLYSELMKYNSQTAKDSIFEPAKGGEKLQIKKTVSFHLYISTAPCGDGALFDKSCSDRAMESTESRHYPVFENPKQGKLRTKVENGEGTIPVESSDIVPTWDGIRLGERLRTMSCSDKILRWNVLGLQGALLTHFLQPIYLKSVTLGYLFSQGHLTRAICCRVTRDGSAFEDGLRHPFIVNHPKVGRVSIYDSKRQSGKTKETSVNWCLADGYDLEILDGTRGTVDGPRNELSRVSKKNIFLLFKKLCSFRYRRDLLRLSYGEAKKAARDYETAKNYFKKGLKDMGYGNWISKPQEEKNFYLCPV
UniProt P09110: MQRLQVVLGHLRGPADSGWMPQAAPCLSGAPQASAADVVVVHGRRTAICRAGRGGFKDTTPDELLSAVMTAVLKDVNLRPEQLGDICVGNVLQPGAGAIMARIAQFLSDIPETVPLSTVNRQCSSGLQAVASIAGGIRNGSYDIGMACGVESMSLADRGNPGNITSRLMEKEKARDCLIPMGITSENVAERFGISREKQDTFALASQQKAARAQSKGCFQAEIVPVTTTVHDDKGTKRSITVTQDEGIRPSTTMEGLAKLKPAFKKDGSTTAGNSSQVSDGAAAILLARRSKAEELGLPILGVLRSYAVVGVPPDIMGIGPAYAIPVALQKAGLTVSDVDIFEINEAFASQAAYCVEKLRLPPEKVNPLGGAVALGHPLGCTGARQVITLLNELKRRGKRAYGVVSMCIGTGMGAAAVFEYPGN
UniProt P78536: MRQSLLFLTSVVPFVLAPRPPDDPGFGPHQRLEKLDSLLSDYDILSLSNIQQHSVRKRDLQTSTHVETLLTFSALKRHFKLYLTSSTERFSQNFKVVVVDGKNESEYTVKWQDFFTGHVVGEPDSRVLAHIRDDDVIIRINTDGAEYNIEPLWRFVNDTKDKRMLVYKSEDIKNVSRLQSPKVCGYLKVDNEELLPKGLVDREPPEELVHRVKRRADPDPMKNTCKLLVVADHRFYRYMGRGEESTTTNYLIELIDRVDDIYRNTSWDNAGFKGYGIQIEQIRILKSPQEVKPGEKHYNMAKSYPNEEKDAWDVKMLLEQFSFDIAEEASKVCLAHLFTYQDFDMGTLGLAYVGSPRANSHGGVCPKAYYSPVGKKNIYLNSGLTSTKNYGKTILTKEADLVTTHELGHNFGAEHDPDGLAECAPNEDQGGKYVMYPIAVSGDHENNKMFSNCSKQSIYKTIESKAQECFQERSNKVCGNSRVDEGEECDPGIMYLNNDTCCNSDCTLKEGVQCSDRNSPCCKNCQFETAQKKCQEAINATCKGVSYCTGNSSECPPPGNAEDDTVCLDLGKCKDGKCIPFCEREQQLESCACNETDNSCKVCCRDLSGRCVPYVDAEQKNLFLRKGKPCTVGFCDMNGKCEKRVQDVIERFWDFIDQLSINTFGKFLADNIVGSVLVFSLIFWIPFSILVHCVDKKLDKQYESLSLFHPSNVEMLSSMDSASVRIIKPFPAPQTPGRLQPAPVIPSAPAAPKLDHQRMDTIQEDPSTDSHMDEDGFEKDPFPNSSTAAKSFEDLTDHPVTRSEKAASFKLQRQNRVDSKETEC
UniProt Q5T8D3: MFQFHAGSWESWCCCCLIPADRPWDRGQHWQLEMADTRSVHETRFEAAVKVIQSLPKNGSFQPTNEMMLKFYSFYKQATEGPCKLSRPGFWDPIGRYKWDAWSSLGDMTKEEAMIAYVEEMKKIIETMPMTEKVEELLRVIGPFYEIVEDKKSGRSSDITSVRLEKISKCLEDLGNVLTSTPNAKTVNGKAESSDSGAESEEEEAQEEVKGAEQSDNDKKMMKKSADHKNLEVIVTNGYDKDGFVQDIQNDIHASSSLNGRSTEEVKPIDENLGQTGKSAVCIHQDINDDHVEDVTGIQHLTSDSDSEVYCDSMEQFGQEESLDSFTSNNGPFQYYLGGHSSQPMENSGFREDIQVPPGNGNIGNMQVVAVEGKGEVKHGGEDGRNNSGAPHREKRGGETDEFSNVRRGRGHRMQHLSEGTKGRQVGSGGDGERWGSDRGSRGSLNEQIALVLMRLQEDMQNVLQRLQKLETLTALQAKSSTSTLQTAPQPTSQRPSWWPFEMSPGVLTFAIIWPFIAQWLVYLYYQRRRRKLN
UniProt P07311: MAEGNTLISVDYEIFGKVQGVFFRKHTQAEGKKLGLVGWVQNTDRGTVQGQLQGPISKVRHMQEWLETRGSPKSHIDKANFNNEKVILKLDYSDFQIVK
UniProt Q9NUB1: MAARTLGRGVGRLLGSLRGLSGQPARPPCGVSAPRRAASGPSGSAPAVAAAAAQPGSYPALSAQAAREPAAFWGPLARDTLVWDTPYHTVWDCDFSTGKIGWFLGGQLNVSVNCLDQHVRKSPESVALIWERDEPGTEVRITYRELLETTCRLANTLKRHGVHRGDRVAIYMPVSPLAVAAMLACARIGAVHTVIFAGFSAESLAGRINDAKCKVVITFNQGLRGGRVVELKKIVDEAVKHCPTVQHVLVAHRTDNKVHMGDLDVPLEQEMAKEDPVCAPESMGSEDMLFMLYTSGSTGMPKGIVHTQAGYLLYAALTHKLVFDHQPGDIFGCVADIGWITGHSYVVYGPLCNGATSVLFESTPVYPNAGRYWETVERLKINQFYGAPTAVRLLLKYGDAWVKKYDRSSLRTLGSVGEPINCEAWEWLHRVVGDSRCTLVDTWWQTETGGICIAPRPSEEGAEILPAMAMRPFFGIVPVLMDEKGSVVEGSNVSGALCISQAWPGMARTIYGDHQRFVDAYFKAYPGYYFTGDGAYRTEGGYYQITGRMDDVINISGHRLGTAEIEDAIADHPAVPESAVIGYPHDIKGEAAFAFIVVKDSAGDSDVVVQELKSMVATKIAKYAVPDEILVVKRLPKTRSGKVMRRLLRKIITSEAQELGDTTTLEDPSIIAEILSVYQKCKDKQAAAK
UniProt Q7Z6V5: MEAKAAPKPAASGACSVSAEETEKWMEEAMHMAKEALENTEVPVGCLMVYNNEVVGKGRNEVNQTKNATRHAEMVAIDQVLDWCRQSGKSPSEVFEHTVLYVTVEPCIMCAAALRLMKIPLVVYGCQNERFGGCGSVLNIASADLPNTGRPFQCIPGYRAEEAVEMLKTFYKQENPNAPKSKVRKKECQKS

Columns and labels:
Experiment in all cases: log2 fold change, soluble protein after heating vs DMSO (PISA); higher = thermal stabilisation; K562 cells, 10 uM, 30 min; active = over 0.2 and 3.5 SD of the protein, either way, in both replicates (recomputed)
[1] = compound: NC(=O)Nc1cc(-c2cccc(F)c2)sc1C(=O)N[C@H]1CCCNC1
Summary of the method: (§1)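 K562 cells (2×10^6 cells/mL) were treated with 10 μM compound for 30 min, and aliquots were heated for 3 min over 48°C-58°C. Pooled aliquots were extracted in PBS with 0.5% NP-40 at 4°C, and the supernatant after 21,000xg for 90 min was measured by TMTpro 16plex LC-MS/MS with channel sums equalised. Reported thermal stability, relative to control samples and from duplicates, is a log2 fold change.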

[2] = compound: NC(=O)c1cnc(N[C@@H]2CCCC[C@@H]2N)nc1Nc1cccc(-n2nccn2)c1
Summary of the method: as §1

[3] = compound: NC1(c2ccc(-c3nc4ccn5c(=O)[nH]nc5c4cc3-c3ccccc3)cc2)CCC1
Summary of the method: as §1

[4] = compound: NCC(=O)Nc1ccc(-n2nc(C(F)(F)F)cc2-c2ccc3c(ccc4ccccc43)c2)cc1
Summary of the method: as §1

entinostat = compound: Nc1ccccc1NC(=O)c1ccc(CNC(=O)OCc2cccnc2)cc1 [entinostat]
Summary of the method: as §1

vorinostat = compound: O=C(CCCCCCC(=O)Nc1ccccc1)NO [vorinostat]
Summary of the method: as §1

citarinostat = compound: O=C(CCCCCCNC(=O)c1cnc(N(c2ccccc2)c2ccccc2Cl)nc1)NO [citarinostat]
Summary of the method: as §1

silmitasertib = compound: O=C(O)c1ccc2c(c1)nc(Nc1cccc(Cl)c1)c1ccncc12 [silmitasertib]
Summary of the method: as §1

[5] = compound: O=C1NC(=O)C(c2cnc3ccccn23)=C1c1cn2c3c(cc(F)cc13)CN(C(=O)N1CCCCC1)CC2
Summary of the method: as §1

[6] = compound: c1cc(OCCN2CCCCC2)cc(-c2n[nH]c3ccc(-c4nnc[nH]4)cc23)c1
Summary of the method: as §1

entospletinib = compound: c1cn2cc(-c3ccc4cn[nH]c4c3)nc(Nc3ccc(N4CCOCC4)cc3)c2n1 [entospletinib]
Summary of the method: as §1

Measured: log2 fold change

ACTR10 (UniProt Q9NZ32)
inactive: [1] 0.01 | [2] -0.003 | [3] -0.013 | [4] -0.018 | entinostat -0.019 | vorinostat -0.04 | citarinostat 0.031 | silmitasertib 0.065 | [5] -0.002 | [6] 0.011 | entospletinib -0.038

ABCC4 (UniProt O15439)
inactive: [1] -0.057 | [2] 0.019 | [3] 0.02 | [4] 0.002 | entinostat -0.059 | vorinostat -0.017 | citarinostat 0.032 | silmitasertib 0.022 | [5] -0.002 | [6] -0.04 | entospletinib -0.006

ACTR1A (UniProt P61163)
inactive: [1] -0.009 | [2] -0.013 | [3] -0.021 | [4] 0.015 | entinostat 0.004 | vorinostat -0.03 | citarinostat 0.013 | silmitasertib 0.025 | [5] -0.018 | [6] -0.05 | entospletinib 0.052

ABHD13 (UniProt Q7L211)
inactive: [1] -0.141 | [2] -0.036 | [3] -0.027 | [4] 0 | entinostat 0.114 | vorinostat -0.05 | citarinostat 0.047 | silmitasertib -0.031 | [5] -0.044 | [6] 0.037 | entospletinib -0.052

A2M (UniProt P01023)
inactive: [1] -0.082 | [2] -0.042 | [3] 0.096 | [4] -0.019 | entinostat 0.034 | vorinostat 0.167 | citarinostat 0.04 | silmitasertib 0.092 | [5] 0.105 | [6] 0.654 | entospletinib 0.246

ACOT9 isoform 4 (UniProt Q9Y305)
inactive: [1] 0.001 | [2] -0.016 | [3] 0.14 | [4] 0.065 | entinostat -0.021 | vorinostat -0.018 | citarinostat -0.034 | silmitasertib -0.093 | [5] 0.124 | [6] -0.048 | entospletinib 0.02

ABCF2 isoform 2 (UniProt Q9UG63)
inactive: [1] -0.003 | [2] -0.049 | [3] -0.063 | [4] -0.03 | entinostat -0.026 | vorinostat 0.016 | citarinostat -0.018 | silmitasertib -0.006 | [5] 0.013 | [6] -0.02 | entospletinib 0.062

ADA (UniProt P00813)
inactive: [1] -0.002 | [2] -0.057 | [3] -0.032 | [4] -0.046 | entinostat 0.016 | vorinostat 0.027 | citarinostat 0.029 | silmitasertib -0.066 | [5] -0.047 | [6] 0.044 | entospletinib 0.06

ACTA1 (UniProt P68133)
inactive: [1] -0.002 | [2] 0.006 | [3] 0.03 | [4] 0.026 | entinostat -0.029 | vorinostat -0.023 | citarinostat -0.03 | silmitasertib -0.006 | [5] -0.074 | [6] 0.018 | entospletinib -0.039

ADAR isoform 4 (UniProt P55265)
inactive: [1] 0.019 | [2] -0.605 | [3] -0.177 | [4] -0.125 | entinostat -0.146 | vorinostat 0.131 | citarinostat 0.036 | silmitasertib -0.025 | [5] 0.006 | [6] -0.008 | entospletinib -0.164

ACAA1 (UniProt P09110)
inactive: [1] 0.019 | [2] 0.032 | [3] 0.04 | [4] 0.027 | entinostat -0.002 | vorinostat -0.036 | citarinostat 0.056 | silmitasertib 0.002 | [5] -0.028 | [6] -0.007 | entospletinib -0.013

ACTN1 (UniProt P12814)
inactive: [1] -0.012 | [2] -0.014 | [3] -0.001 | [4] 0.042 | entinostat -0.018 | vorinostat -0.028 | citarinostat 0.029 | silmitasertib 0.009 | [5] -0.018 | [6] -0.04 | entospletinib -0.056

ACACA isoform 4 (UniProt Q13085)
inactive: [1] 0.003 | [2] -0.068 | [3] 0.009 | [4] 0.022 | entinostat 0.042 | vorinostat 0.087 | citarinostat 0.044 | silmitasertib 0.121 | [5] 0.198 | [6] -0.1 | entospletinib 0.142

ABLIM1 (UniProt O14639)
inactive: [1] 0.031 | [2] -0.031 | [3] 0.075 | [4] -0.04 | entinostat 0.081 | vorinostat -0.072 | citarinostat -0.041 | silmitasertib 0.315 | [5] 0.008 | [6] -0.023 | entospletinib 0.008

ACAT1 (UniProt P24752)
inactive: [1] 0.012 | [2] -0.031 | [3] -0.039 | [4] -0.043 | entinostat -0.009 | vorinostat -0.039 | citarinostat 0 | silmitasertib -0.044 | [5] -0.029 | [6] -0.023 | entospletinib -0.079

ADAM9 (UniProt Q13443)
inactive: [1] 0.01 | [2] 0.046 | [3] 0.034 | [4] 0.065 | entinostat -0.062 | vorinostat -0.078 | citarinostat -0.025 | silmitasertib 0.023 | [5] 0.012 | [6] -0.014 | entospletinib 0.01

ADAM17 (UniProt P78536)
inactive: [1] 0.024 | [2] -0.015 | [3] -0.066 | [4] 0.135 | entinostat -0.006 | vorinostat -0.02 | citarinostat -0.039 | silmitasertib 0.037 | [5] -0.023 | [6] -0.053 | entospletinib -0.005

AAAS (UniProt Q9NRG9)
inactive: [1] 0.013 | [2] 0.007 | [3] -0.017 | [4] -0.021 | entinostat -0.038 | vorinostat 0.034 | citarinostat 0.029 | silmitasertib -0.011 | [5] 0.002 | [6] 0.026 | entospletinib -0.022

ACBD5 (UniProt Q5T8D3)
inactive: [1] -0.116 | [2] 0.009 | [3] 0.157 | [4] 0.044 | entinostat 0.089 | vorinostat 0.012 | silmitasertib -0.051 | [5] -0.025

ACYP1 (UniProt P07311)
inactive: [1] -0.06 | [2] -0.041 | [3] -0.027 | [4] -0.093 | entinostat 0.011 | vorinostat -0.021 | citarinostat 0.03 | silmitasertib -0.007 | [5] -0.022 | [6] -0.031 | entospletinib 0.123

ACSS1 (UniProt Q9NUB1)
inactive: [1] 0.2 | [2] -0.041 | [3] -0.102 | [4] -0.122 | entinostat 0.091 | vorinostat 0.227 | citarinostat 0.033 | silmitasertib 0.063 | [6] -0.069 | entospletinib -0.003

ABCD4 (UniProt O14678)
inactive: [1] 0.03 | [2] -0.027 | [3] -0.319 | [4] -0.098 | entinostat -0.004 | citarinostat -0.006 | silmitasertib 0.015 | [5] -0.09 | [6] -0.025 | entospletinib 0.052

ABCC1 (UniProt P33527)
inactive: [1] -0.011 | [2] 0.035 | [3] 0 | [4] 0.005 | entinostat -0.027 | vorinostat 0.013 | citarinostat 0.027 | silmitasertib 0 | [5] 0.022 | [6] -0.041 | entospletinib 0.023

AARS (UniProt P49588)
inactive: [1] 0.026 | [2] -0.012 | [3] -0.081 | [4] -0.026 | entinostat 0.018 | vorinostat 0.034 | citarinostat 0.01 | silmitasertib -0.059 | [5] -0.041 | [6] -0.023 | entospletinib -0.043

Two neighbouring records from above, quoted:
ACACA isoform 4 (UniProt Q13085)
inactive: [1] 0.003 | [2] -0.068 | [3] 0.009 | [4] 0.022 | entinostat 0.042 | vorinostat 0.087 | citarinostat 0.044 | silmitasertib 0.121 | [5] 0.198 | [6] -0.1 | entospletinib 0.142

ABLIM1 (UniProt O14639)
inactive: [1] 0.031 | [2] -0.031 | [3] 0.075 | [4] -0.04 | entinostat 0.081 | vorinostat -0.072 | citarinostat -0.041 | silmitasertib 0.315 | [5] 0.008 | [6] -0.023 | entospletinib 0.008

More entries.

ACADSB (UniProt P45954)
inactive: [1] 0.026 | [2] 0.031 | [3] -0.016 | [4] 0.043 | entinostat -0.045 | vorinostat 0.024 | citarinostat 0.034 | silmitasertib 0.025 | [5] -0.082 | [6] -0.036 | entospletinib 0.018

ABCF3 (UniProt Q9NUQ8)
inactive: [1] -0.027 | [2] -0.055 | [3] 0.187 | [4] 0.054 | entinostat 0.083 | vorinostat -0.16 | citarinostat -0.071 | silmitasertib 0.232 | [5] 0.3 | [6] 0.125 | entospletinib 0.101

ADAT2 (UniProt Q7Z6V5)
inactive: [1] 0.016 | [2] 0.108 | [3] -0.05 | [4] 0.041 | entinostat -0.024 | vorinostat -0.015 | citarinostat 0.048 | silmitasertib 0.057 | [5] -0.029 | [6] -0.018 | entospletinib -0.063
